Reference: paper PMC12191679
These are yes or no findings as the source states them, for the method shown. Binding seen in cells or lysates may run through a third protein. Some entries that bind do so weakly or less than the wild type. For some assays here: Tags and fused reporters may be left off the sequences shown.

By UniProt entry, the sequences of proteins in these tests, tags left out.
UniProt Q5SYB0: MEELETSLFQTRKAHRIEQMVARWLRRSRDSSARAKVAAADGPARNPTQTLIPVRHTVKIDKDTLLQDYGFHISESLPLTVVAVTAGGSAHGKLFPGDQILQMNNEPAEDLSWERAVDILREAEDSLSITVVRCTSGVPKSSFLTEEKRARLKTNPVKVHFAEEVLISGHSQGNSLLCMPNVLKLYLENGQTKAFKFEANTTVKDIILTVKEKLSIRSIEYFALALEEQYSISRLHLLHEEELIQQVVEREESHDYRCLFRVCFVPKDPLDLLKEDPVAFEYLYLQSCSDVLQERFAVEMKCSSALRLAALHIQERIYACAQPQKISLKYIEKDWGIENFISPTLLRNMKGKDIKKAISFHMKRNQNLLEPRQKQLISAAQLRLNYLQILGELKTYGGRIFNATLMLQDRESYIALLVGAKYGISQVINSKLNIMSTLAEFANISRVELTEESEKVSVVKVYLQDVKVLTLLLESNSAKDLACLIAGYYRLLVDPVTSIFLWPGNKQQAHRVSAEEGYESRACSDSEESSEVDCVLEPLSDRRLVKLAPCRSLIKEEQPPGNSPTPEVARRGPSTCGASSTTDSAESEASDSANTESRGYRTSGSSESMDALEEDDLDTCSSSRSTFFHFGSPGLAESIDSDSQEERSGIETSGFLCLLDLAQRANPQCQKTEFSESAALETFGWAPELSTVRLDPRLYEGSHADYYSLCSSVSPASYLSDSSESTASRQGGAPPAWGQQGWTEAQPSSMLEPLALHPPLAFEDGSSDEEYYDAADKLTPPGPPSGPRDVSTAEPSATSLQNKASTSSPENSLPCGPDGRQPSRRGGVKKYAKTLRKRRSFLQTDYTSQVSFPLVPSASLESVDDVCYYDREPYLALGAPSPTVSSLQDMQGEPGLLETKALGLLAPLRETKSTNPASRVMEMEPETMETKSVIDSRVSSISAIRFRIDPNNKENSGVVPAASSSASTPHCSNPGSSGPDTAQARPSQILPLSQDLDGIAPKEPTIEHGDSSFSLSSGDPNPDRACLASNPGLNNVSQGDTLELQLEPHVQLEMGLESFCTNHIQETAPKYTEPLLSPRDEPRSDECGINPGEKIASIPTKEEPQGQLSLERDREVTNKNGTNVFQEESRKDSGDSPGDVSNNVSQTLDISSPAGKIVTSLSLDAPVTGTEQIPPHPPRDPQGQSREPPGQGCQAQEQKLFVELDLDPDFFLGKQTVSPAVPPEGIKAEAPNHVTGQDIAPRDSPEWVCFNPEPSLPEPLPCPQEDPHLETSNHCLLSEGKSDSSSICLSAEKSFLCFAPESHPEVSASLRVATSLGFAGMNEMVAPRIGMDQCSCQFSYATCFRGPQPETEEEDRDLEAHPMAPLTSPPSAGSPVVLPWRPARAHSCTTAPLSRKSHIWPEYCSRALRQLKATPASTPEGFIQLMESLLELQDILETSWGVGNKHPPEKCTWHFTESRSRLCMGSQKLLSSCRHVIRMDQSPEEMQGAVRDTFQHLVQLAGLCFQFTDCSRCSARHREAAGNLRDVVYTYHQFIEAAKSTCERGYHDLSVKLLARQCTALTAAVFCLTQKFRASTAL

What was measured:
Flag-FBXO10 (human) = molecular target: T1, Flag-FBXO10 (human) (UniProt Q9UK96); experiment: co-IP; HEK-293T cells transfected 24 h with Flag-FBXO10, lysed in NETN buffer; Anti-Flag Affinity Gel 4 h, three washes with NETN; immunoblot with FRMPD1 and Flag antibodies
T1 sequence: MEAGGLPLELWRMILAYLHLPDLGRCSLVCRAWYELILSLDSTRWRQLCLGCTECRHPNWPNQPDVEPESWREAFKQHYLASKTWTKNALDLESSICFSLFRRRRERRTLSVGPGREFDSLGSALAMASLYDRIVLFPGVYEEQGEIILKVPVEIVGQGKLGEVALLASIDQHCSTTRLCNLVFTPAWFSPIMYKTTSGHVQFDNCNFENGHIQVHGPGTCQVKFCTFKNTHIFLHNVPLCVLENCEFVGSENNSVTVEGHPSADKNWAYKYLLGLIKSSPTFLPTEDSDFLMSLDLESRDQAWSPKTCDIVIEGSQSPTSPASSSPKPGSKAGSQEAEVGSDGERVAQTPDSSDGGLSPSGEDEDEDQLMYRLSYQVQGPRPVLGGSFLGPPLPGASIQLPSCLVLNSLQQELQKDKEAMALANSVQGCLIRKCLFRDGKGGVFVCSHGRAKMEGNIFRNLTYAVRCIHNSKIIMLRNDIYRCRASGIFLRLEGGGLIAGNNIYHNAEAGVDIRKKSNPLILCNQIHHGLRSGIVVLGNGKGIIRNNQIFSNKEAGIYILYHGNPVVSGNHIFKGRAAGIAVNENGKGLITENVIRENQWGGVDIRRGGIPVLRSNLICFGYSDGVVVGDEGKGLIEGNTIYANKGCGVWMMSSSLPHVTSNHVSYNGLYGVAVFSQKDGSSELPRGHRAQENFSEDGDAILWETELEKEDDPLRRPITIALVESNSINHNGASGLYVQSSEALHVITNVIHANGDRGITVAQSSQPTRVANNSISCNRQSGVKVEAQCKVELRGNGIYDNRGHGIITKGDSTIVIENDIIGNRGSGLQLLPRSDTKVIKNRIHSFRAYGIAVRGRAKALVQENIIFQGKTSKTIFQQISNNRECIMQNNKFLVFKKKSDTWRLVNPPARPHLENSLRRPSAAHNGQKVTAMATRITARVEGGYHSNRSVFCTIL

[1] = molecular target: T2, FBXO10 (endogenous, HepG2) (human (endogenous in HepG2)) (UniProt Q9UK96); experiment: co-IP; endogenous proteins in HepG2 cells lysed in NETN buffer; immunoprecipitation with an antibody against FBXO10; immunoblot
T2 sequence: T1 sequence

binding (Flag-FBXO10 (human)) | binding [1] | Substance
binds | – | FRMPD1 (endogenous, HEK-293T) (from UniProt Q5SYB0 1-1578)
– | binds | FRMPD1 (endogenous, HepG2) (from UniProt Q5SYB0 1-1578)
